Results reported in publication PMC7319344.
No constants are given. Whether binding was seen depends on the method and setting. Binding seen in cells or lysates may run through a third protein. A yes stands for co-enrichment or nearness to the bait. Other partners may have been found. Sequences can lack the tags named with a protein.

T1: Grx3-HBH (C. albicans monothiol glutaredoxin Grx3 with His-Biotin-His tag) (C. albicans) (UniProt Q5AF81)
T1 sequence: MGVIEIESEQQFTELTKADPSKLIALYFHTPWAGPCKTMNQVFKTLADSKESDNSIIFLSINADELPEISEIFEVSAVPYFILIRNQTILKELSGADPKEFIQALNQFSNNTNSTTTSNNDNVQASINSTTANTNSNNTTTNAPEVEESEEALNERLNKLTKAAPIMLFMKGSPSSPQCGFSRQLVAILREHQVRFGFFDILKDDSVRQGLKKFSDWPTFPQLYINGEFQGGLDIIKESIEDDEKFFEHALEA


Target: T1, Grx3-HBH (C. albicans monothiol glutaredoxin Grx3 with His-Biotin-His tag) (C. albicans)
Test: affinity purification with mass spectrometry; in vivo cross-linking with 1% formaldehyde for 10 min, His-Biotin-His (HBH) tandem affinity purification of Grx3-HBH under denaturing conditions (lysis in 8M urea buffer), label-free quantitative LC-MS/MS; cells grown in YPM with or without 500 uM BPS for 6hr or 16hr; proteins in untagged control, Wor1/Tup1 HBH purifications and the CRAPome excluded

| binding | Binder |
| --- | --- |
| binds | Rad6 (protein, UniProt O74201 1-179) MSTPARRRLMRDFKRMQQDPPSGVSASPLPDNVMKWNAVIIGPSDTPFEDGTFRLLLSFDEQYPNKPPQVKFISEMFHPNVYASGELCLDILQNRWSPTYDVSSILTSVQSLLNDPNISSPANVEAANLYKDHRSLYVKRVRETVENSWNDDDDEEEEEEDEDEAEDEDDDDDDNIDED |
| binds | Rad51 (protein, UniProt Q59UY8 1-361) MTQTEIEQVDLHEEGSHPQNINADAEVEAEEDEDVLNGPLLIEQLEGNGINASDIKKLKAEGFHTIESIAYTPKRHLMTVKGISENKAEKISAEAAKLVPLGFTTASEFHSRRSELICLTTGSKQLDTLLGGGVETGSITEVFGEFRTGKSQLCHTLAVTCQLPIDMGGGEGKCLYIDTEGTFRPNRLVSIAQRYGLNPNDCLDNVAYARAYNAEHQLNLLNIAAEMMAESRFSLLIVDSIMSLYRTDYAGRGELSARQTHVAKFMRTLQRLADEFGIAVVITNQVVAQVDGMSGMFNPDPKKPIGGNIIAHSSTTRLSFKKGRGETRICKIYDSPCLPESECIFAIYEDGIGDPKVEDNE |
| binds | Sfu1 (protein, UniProt Q5AP95 1-517) MPTSPTESIPNSSTKEQPILPKMLPTAKSPHTTPAQSPQNSDHHHHHQQTPPQPTDGQQCSNCGTTKTPLWRRAPDGTLICNACGLYYRSNNTHRPVNLKRPPNTIAVVKEEEGSCKGDGRCNGTGGSAACKGCPAYNNRIVAKKALEKSPKNDSSRAPIDKSLKRSTSTDATTEDESSLAIACFNCGTTITPLWRRDDAGNTICNACGLFYRLHGSHRPIKMKRPTIKRRKRNVSDKKSKDEVQMHSSDQSPIVASDPISPTPHNNENNNNVTNITTTTKTPTRSPHYYQPPPQYPYQHHPINSTTSSAINRLPPISYQSPYQTAPLSHSPMQSSSSYSPGASSVIPSSYYPPYSGSGRIPNGPGPVPGPPPPPPPTQSQPHHQQITTSPTSQSYGSLRAPIHITKRGYTPENIRLPSIQLTSSTSSNSETKLPPITNHSEKCCSNCAGPKSLAPMAIDFTASYRFNNIDSQTKLTKEDQNDSEGVSRDNDTRDENKPIKQEEHRSALSIGKLLNG |
